From PubChem BioAssay AID332 (DTP/NCI, 2004)
The list shows only some results of the screen, not a fair sample: it gathers tests that were run many times, whatever their T/C, doses with no T/C, and many T/C values between a quarter and a half above the control. Other doses and runs of a compound stand elsewhere. T/C: endpoint of the treated group in % of that of the vehicle group. Schedules are NCI's codes, read here as Q, the interval in days (D) or hours (H), X, the number of doses. Some T/C values are followed by the survivors on the day toxicity was checked, most often the fifth; where none is given, no animal had died by that day. Some doses were run more than once; their values stand side by side, smallest first. Some entries give survivors of the animals treated and no T/C: the source holds a T/C of zero for them, seemingly a mark for toxic or unscored doses. Survivors were counted at the toxicity check, usually on the fifth day, unless a day is given; later deaths do not show.

System: mice, ADJ-PC-20 plasma cell tumor sc, T/C %
Experiment: NCI In Vivo Anticancer Drug Screen. Data for tumor model ADJ-PC-20 Plasma Cell (subcutaneous) in unknown mice
Conditions: T/C endpoint: mean tumor weight, higher T/C = larger tumour; for T/C: evaluated on day 21
Method: The antitumor activity of compounds was measured in mice bearing transplantable tumors. Survival or tumor size were measured and the results are expressed as the measurement made in the treated group (T) divided by the measurement made in the vehicle treated control group (C). The tumor model used in this assay is ADJ-PC-20 Plasma Cell (subcutaneous) in unknown mice

[1] = dose: 1.25 mg/kg/injection, schedule: Q01DX010 (ip), vehicle: other
[2] = dose: 15.0 mg/kg/injection, schedule: Q01DX010 (ip), vehicle: carboxymethylcellulose (CMC)
[3] = dose: 30.0 mg/kg/injection, schedule: Q01DX010 (ip), vehicle: carboxymethylcellulose (CMC)
[4] = dose: 25.0 mg/kg/injection, schedule: Q01DX010 (ip), vehicle: saline
[5] = dose: 100.0 mg/kg/injection, schedule: Q01DX010 (ip), vehicle: carboxymethylcellulose (CMC)
[6] = dose: 50.0 mg/kg/injection, schedule: Q01DX010 (ip), vehicle: other
[7] = dose: 200.0 mg/kg/injection, schedule: Q01DX010 (ip), vehicle: carboxymethylcellulose (CMC)

Structure (SMILES): CN(Cc1cnc2nc(N)nc(N)c2n1)c1ccc(C(=O)N[C@@H](CCC(=O)O)C(=O)O)cc1
- T/C (dose: 0.31 mg/kg/injection, schedule: Q01DX010 (ip), vehicle: other): 49 [7 of 10 alive], 90, 91, 102, 113 % of control
- survivor count (dose: 0.62 mg/kg/injection, schedule: Q01DX010 (ip), vehicle: other): 0 of 10
- T/C [1]: 15 [8 of 10 alive] and 31 % of control
- survivor count [1]: 0 of 10 and 5 of 10
- survivor count (dose: 2.5 mg/kg/injection, schedule: Q01DX010 (ip), vehicle: other): 5 of 10
- survivor count (dose: 2.5 mg/kg/injection, schedule: Q01DX011 (ip), vehicle: other): 0 of 6
- survivor count (dose: 5.0 mg/kg/injection, schedule: Q01DX011 (ip), vehicle: other): 0 of 6

Structure (SMILES): CC(=O)OCC1OC(n2ncc(=O)[nH]c2=O)C(OC(C)=O)C1OC(C)=O (centres undefined)
- survivor count (dose: 1000.0 mg/kg/injection, schedule: Q01DX010 (ip), vehicle: other): 0 of 10

Structure (SMILES): N=[N+]=CC(=O)OCC(N)C(=O)O (centres undefined)
- survivor count (dose: 5.0 mg/kg/injection, schedule: Q01DX010 (ip), vehicle: saline): 5 of 10
- survivor count (dose: 10.0 mg/kg/injection, schedule: Q01DX010 (ip), vehicle: saline): 0 of 10

Structure (SMILES): CCCCCCCCCCCCNCCCCCCCCCCCC
- survivor count [2]: 0 of 10
- survivor count [3]: 0 of 10
- survivor count (dose: 60.0 mg/kg/injection, schedule: Q01DX010 (ip), vehicle: carboxymethylcellulose (CMC)): 0 of 10

Structure (SMILES): C1CN1c1nc(N2CC2)nc(N2CC2)n1
- survivor count (dose: 0.25 mg/kg/injection, schedule: Q01DX010 (ip), vehicle: saline): 0 of 10
- survivor count (dose: 1.0 mg/kg/injection, schedule: Q01DX010 (ip), vehicle: saline): 0 of 10

Structure (SMILES): C=CC(CN1CC1)OC(C)=O (centres undefined)
- survivor count [2]: 0 of 10
- survivor count [3]: 0 of 10

Structure (SMILES): COS(C)(=O)=O
- survivor count (dose: 200.0 mg/kg/injection, schedule: Q01DX010 (ip), vehicle: water): 0 of 10

Structure (SMILES): O=NN(CCCl)C(=O)NCCCl
- survivor count [4]: 0 of 10

Structure (SMILES): CC(=O)Nc1ccc2nc3ccc(NC(C)=O)cc3[n+](-c3ccccc3)c2c1
- survivor count [5]: 0 of 6

Structure (SMILES): O=C1CCC(N2C(=O)c3ccccc3C2=O)C(=O)N1 (centres undefined)
- T/C (dose: 150.0 mg/kg/injection, schedule: Q01DX010 (ip), vehicle: carboxymethylcellulose (CMC)): 145 % of control
- T/C (dose: 600.0 mg/kg/injection, schedule: Q01DX010 (ip), vehicle: carboxymethylcellulose (CMC)): 125 % of control

Structure (SMILES): CS(=O)(=O)OCCCCOS(C)(=O)=O
- survivor count (dose: 1.56 mg/kg/injection, schedule: Q01DX010 (ip), vehicle: methylcellulose (MC)): 4 of 10
- T/C (dose: 3.12 mg/kg/injection, schedule: Q01DX010 (ip), vehicle: methylcellulose (MC)): 138 % of control [8 of 10 alive]
- T/C (dose: 6.25 mg/kg/injection, schedule: Q01DX010 (ip), vehicle: methylcellulose (MC)): 130 % of control
- T/C (dose: 12.5 mg/kg/injection, schedule: Q01DX010 (ip), vehicle: methylcellulose (MC)): 143 % of control
- survivor count (dose: 50.0 mg/kg/injection, schedule: Q01DX010 (ip), vehicle: methylcellulose (MC)): 2 of 10
- survivor count (dose: 100.0 mg/kg/injection, schedule: Q01DX010 (ip), vehicle: methylcellulose (MC)): 0 of 10

Structure (SMILES): O=c1cn[nH]c(=O)[nH]1
- survivor count (dose: 2000.0 mg/kg/injection, schedule: Q01DX010 (ip), vehicle: carboxymethylcellulose (CMC)): 3 of 10
- survivor count (dose: 4000.0 mg/kg/injection, schedule: Q01DX010 (ip), vehicle: carboxymethylcellulose (CMC)): 6 of 10

Structure (SMILES): Cn1cnc([N+](=O)[O-])c1Sc1nc(N)nc2nc[nH]c12
- survivor count (dose: 8.0 mg/kg/injection, schedule: Q01DX010 (ip), vehicle: carboxymethylcellulose (CMC)): 0 of 10
- survivor count (dose: 16.0 mg/kg/injection, schedule: Q01DX010 (ip), vehicle: carboxymethylcellulose (CMC)): 0 of 10

Structure (SMILES): O=C(Nc1ccc(C2=NCCCN2)cc1)c1ccc(C(=O)Nc2ccc(C3=NCCCN3)cc2)cc1
- survivor count (dose: 0.4 mg/kg/injection, schedule: Q01DX010 (ip), vehicle: water): 4 of 10
- survivor count (dose: 0.8 mg/kg/injection, schedule: Q01DX010 (ip), vehicle: water): 0 of 10 and 4 of 10
- survivor count (dose: 1.6 mg/kg/injection, schedule: Q01DX010 (ip), vehicle: water): 1 of 10 and 3 of 10
- survivor count (dose: 1.62 mg/kg/injection, schedule: Q01DX010 (ip), vehicle: saline): 4 of 10
- survivor count (dose: 3.1 mg/kg/injection, schedule: Q01DX010 (ip), vehicle: water): 0 of 10 and 2 of 10
- survivor count (dose: 6.25 mg/kg/injection, schedule: Q01DX010 (ip), vehicle: saline): 0 of 10
- survivor count (dose: 12.5 mg/kg/injection, schedule: Q01DX010 (ip), vehicle: saline): 0 of 10
- survivor count [4]: 0 of 10

Structure (SMILES): Cc1n[nH]c(=O)[nH]c1=O
- T/C [6]: 132 % of control
- T/C (dose: 800.0 mg/kg/injection, schedule: Q01DX010 (ip), vehicle: other): 140 % of control [9 of 10 alive]

Structure (SMILES): Nc1nc2n[nH]nc2c(=O)[nH]1
- T/C (dose: 12.5 mg/kg/injection, schedule: Q01DX010 (ip), vehicle: other): 129 % of control
- survivor count (dose: 100.0 mg/kg/injection, schedule: Q01DX010 (ip), vehicle: other): 5 of 10
- survivor count (dose: 150.0 mg/kg/injection, schedule: Q01DX010 (ip), vehicle: other): 5 of 10
- survivor count (dose: 300.0 mg/kg/injection, schedule: Q01DX010 (ip), vehicle: other): 0 of 10

Structure (SMILES): O=c1cnn(C2OC(CO)C(O)C2O)c(=O)[nH]1 (centres undefined)
- survivor count (dose: 500.0 mg/kg/injection, schedule: Q01DX010 (ip), vehicle: water): 3 of 10
- survivor count (dose: 1000.0 mg/kg/injection, schedule: Q01DX010 (ip), vehicle: water): 1 of 10

Structure (SMILES): CN(C)c1ccc(/C=C\c2ccnc3ccccc23)cc1
- survivor count (dose: 50.0 mg/kg/injection, schedule: Q01DX010 (ip), vehicle: water): 0 of 10
- survivor count (dose: 50.0 mg/kg/injection, schedule: Q01DX011 (ip), vehicle: water): 6 of 10
- survivor count (dose: 100.0 mg/kg/injection, schedule: Q01DX011 (ip), vehicle: water): 0 of 10
- survivor count (dose: 200.0 mg/kg/injection, schedule: Q01DX011 (ip), vehicle: water): 1 of 10

Structure (SMILES): c1ccc(CNc2ncnc3[nH]ncc23)cc1
- survivor count (dose: 64.0 mg/kg/injection, schedule: Q01DX010 (ip), vehicle: carboxymethylcellulose (CMC)): 1 of 10
- survivor count (dose: 128.0 mg/kg/injection, schedule: Q01DX010 (ip), vehicle: carboxymethylcellulose (CMC)): 0 of 10

Structure (SMILES): CCCCNc1ncnc2c1cnn2C
- T/C (dose: 6.25 mg/kg/injection, schedule: Q01DX010 (ip), vehicle: carboxymethylcellulose (CMC)): 135 % of control
- survivor count [5]: 0 of 10
- survivor count [7]: 0 of 10

Structure (SMILES): CN(C)c1ccc(Nc2c3ccccc3nc3ccccc23)cc1
- T/C (dose: 12.5 mg/kg/injection, schedule: Q01DX010 (ip), vehicle: carboxymethylcellulose (CMC)): 136 % of control
- T/C (dose: 50.0 mg/kg/injection, schedule: Q01DX010 (ip), vehicle: carboxymethylcellulose (CMC)): 136 % of control
- survivor count [7]: 0 of 10
- survivor count (dose: 400.0 mg/kg/injection, schedule: Q01DX010 (ip), vehicle: carboxymethylcellulose (CMC)): 0 of 10

Structure (SMILES): S=c1nc[nH]c2nc[nH]c12
- survivor count [6]: 0 of 6 and 5 of 10
- survivor count (dose: 100.0 mg/kg/injection, schedule: Q01DX011 (ip), vehicle: other): 0 of 6 and 3 of 10
- survivor count (dose: 200.0 mg/kg/injection, schedule: Q01DX011 (ip), vehicle: other): 0 of 6
